# Measured data: PubChem BioAssay AID504804 (Drosophila RNAi Screening Center, 2011)
# Aim: 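Fly genes whose loss lessens doxorubicin-driven cell death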 (primary screen)
# System: Drosophila Kc cells
# Knock-down reagent: long dsRNA against Drosophila genes, 0.5 µg dsRNA per well
# Timing: 96 h (48 h knock-down, then 48 h drug)
# Conditions: doxorubicin 5 µg/ml for 48 h, added 48 h after dsRNA
# Measurement: 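Luminescent ATP counts per replicate, not normalised, reflecting viable cells after 48 h dsRNA knock-down followed by 48 h of 5 µg/ml doxorubicin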
# Reading the numbers: raw ATP luminescence: higher = more viable cells, protection from doxorubicin
# Call rule: 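Active when both duplicate wells lie at least 2 SD above the plate mean and protection is confirmed by rescreening and independent dsRNAs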
# In all, the deposit lists about 19,000 reagents; this is an unselected part of those with a known target gene and a result. Over the whole deposit, 47 (0.25%) got an active call. 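Signals are raw, not normalised; exact z-scores behind calls not deposited; actives needed confirmation, so some wells reaching 2 SD are inactive.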 A number with no mark means an inactive call. A plus sign joins genes that one reagent is predicted to hit.
gene,DRSC id,SD above plate mean,"raw ATP luminescence, replicate 1","raw ATP luminescence, replicate 2"
Sym,DRSC12301,,68120,26107
Wnt4,DRSC00976,,1.63e5,1.53e5
Wnt4,DRSC03477,,21170,34057
brk,DRSC18745,,14320,17260
ZAP3,DRSC17853,,3.91e5,3.90e5
ZAP3,DRSC18249,,3.45e5,3.37e5
CG32021 (retired record),DRSC17206,2 to 3 SD above plate mean,75710,92500
CG11608,DRSC14334,,61060,50653
Mocs2A + Mocs2B,DRSC13697,,1.49e5,1.47e5
Mocs2A + Mocs2B,DRSC14219,,70510,64730
CG1792,DRSC15290,,80720,59350
CG32023,DRSC08946,,1.94e5,1.85e5
CG18180,DRSC10304,,43567,34853
CG14830,DRSC08876,,1.66e5,1.34e5
CG14830,DRSC10200,,81617,70223
shg,DRSC04714,,69843,51163
Dcp-1,DRSC04609,,80707,78787
Klp68D,DRSC11206,,53970,36690
CG42238,DRSC03180,,61240,74347
CG6106,DRSC19971,,3.26e5,3.14e5
CG7997,DRSC07052,,58870,51723
Cds,DRSC10938,,37043,38977
foxo,DRSC13017,,34633,38194
foxo,DRSC15463,,57353,27517
Scgalpha,DRSC03076,,42110,56970
CG31533,DRSC13018,,2.10e5,2.67e5
CG14615,DRSC20627,,3.05e5,2.79e5
CG4956,DRSC15683,,57800,63970
t-cup,DRSC01254,,2.41e5,2.43e5
Sec71,DRSC01893,,74923,75863
Ire1,DRSC15606,,90680,53970
CG8476,DRSC16426,,76250,63060
Octalpha2R,DRSC13319,,2.46e5,2.42e5
Octalpha2R,DRSC15314,,15560,19830

Laid out differently: entries from further up
{"gene":"Cds","DRSC id":"DRSC10938","raw ATP luminescence, replicate 1":37043,"raw ATP luminescence, replicate 2":38977}
{"gene":"foxo","DRSC id":"DRSC13017","raw ATP luminescence, replicate 1":34633,"raw ATP luminescence, replicate 2":38194}
{"gene":"foxo","DRSC id":"DRSC15463","raw ATP luminescence, replicate 1":57353,"raw ATP luminescence, replicate 2":27517}
{"gene":"Scgalpha","DRSC id":"DRSC03076","raw ATP luminescence, replicate 1":42110,"raw ATP luminescence, replicate 2":56970}
{"gene":"CG31533","DRSC id":"DRSC13018","raw ATP luminescence, replicate 1":2.10e5,"raw ATP luminescence, replicate 2":2.67e5}
